Source: publication PMC11955112
Results are given in words; binding and its absence hold for the method and conditions named. Binding seen in cells or lysates may run through a third protein. Some entries that bind do so weakly or less than the wild type.

The chains behind the UniProt entries cited, without tags or fusion partners. Residues count along the entry.
UniProt Q93009: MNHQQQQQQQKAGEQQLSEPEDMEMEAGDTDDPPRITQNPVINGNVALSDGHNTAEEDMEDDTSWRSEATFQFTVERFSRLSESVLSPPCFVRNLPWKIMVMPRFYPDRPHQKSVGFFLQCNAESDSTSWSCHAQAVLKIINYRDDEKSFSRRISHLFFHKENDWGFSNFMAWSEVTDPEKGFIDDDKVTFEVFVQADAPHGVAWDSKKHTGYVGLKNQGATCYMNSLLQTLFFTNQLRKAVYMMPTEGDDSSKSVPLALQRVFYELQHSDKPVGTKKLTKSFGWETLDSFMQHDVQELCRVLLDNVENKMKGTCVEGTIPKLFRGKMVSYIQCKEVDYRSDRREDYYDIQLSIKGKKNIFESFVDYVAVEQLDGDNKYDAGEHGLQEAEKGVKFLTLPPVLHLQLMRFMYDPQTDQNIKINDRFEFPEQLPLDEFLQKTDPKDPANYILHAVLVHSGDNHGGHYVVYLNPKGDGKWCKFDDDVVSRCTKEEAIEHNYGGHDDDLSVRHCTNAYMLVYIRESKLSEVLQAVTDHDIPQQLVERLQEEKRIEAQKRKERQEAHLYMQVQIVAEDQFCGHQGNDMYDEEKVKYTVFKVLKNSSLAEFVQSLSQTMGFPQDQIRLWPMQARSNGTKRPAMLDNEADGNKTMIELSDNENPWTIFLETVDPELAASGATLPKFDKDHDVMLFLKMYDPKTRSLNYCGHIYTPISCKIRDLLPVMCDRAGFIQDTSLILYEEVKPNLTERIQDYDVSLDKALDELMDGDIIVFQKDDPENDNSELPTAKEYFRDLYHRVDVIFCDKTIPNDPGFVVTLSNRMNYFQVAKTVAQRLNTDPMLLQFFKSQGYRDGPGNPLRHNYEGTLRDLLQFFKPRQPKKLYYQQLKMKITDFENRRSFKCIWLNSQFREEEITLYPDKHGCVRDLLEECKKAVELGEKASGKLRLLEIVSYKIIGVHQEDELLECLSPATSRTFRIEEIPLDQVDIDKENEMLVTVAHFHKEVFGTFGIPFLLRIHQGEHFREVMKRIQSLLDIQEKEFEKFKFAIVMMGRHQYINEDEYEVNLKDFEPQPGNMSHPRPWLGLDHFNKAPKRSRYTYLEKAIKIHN
UniProt Q9NZQ7, residues 19-290: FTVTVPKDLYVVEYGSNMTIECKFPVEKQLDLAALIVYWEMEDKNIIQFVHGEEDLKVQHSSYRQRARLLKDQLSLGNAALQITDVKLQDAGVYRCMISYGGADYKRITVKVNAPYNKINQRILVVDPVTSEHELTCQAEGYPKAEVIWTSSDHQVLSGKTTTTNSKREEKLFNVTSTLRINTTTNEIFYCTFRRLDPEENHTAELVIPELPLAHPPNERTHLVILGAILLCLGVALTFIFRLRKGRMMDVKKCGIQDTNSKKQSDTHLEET

Biological target: ubiquitin-specific protease 7 (USP7) (human (endogenous in KYSE150 and TE1)) (UniProt Q93009)
Test: co-IP; endogenous proteins in lysates of KYSE150 and TE1 cells; indicated primary antibodies or isotype control IgG, protein A/G magnetic beads, washed with NP-40 buffer, western blot; also in cells overexpressing circNF1 or with ANXA1 knocked down

Molecule: programmed cell death ligand 1 (PD-L1) (from UniProt Q9NZQ7 19-290)
- binding: binds

B1: annexin A1 (ANXA1) (protein, UniProt P04083 1-346)
chain: MAMVSEFLKQAWFIENEEQEYVQTVKSSKGGPGSAVSPYPTFNPSSDVAALHKAIMVKGVDEATIIDILTKRNNAQRQQIKAAYLQETGKPLDETLKKALTGHLEEVVLALLKTPAQFDADELRAAMKGLGTDEDTLIEILASRTNKEIRDINRVYREELKRDLAKDITSDTSGDFRNALLSLAKGDRSEDFGVNEDLADSDARALYEAGERRKGTDVNVFNTILTTRSYPQLRRVFQKYTKYSKHDMNKVLDLELKGDIEKCLTAIVKCATSKPAFFAEKLHQAMKGVGTRHKALIRIMVSRSEIDMNDIKAFYQKMYGISLCQAILDETKGDYEKILVALCGGN
- binding: binds
